This is one part of the list. Single values are uncertain, as repeats are few or missing.
Target: T1, NSUN6 (UniProt Q8TEA1)
T1 sequence: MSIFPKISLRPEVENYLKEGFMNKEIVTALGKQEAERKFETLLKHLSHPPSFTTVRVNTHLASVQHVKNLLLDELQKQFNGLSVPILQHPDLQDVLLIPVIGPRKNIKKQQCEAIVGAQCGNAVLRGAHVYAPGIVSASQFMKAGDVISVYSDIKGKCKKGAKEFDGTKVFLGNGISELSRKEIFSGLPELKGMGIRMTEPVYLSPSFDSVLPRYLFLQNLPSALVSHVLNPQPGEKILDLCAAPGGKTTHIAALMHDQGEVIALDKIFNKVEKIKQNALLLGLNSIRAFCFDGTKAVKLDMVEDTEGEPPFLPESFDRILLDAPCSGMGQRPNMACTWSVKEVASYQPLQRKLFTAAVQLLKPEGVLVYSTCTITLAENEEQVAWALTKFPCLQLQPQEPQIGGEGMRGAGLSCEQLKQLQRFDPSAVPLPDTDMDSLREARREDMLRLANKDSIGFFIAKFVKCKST
Assay: m5C methylation level at the target C (C/(C+U) bisulfite reads) (fraction); higher = more methylation by NSUN6; extreme values may be limits of the assay
Settings: HEK293T (wild-type)
Protocol: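 High-throughput mutagenesis reporter. About 140 bp oligo-pool variants of four natural Type II m5C substrates (substrate #1 chr15:91425541; #2 RAB15 3'UTR chr14:65413377; #3 SULT2A1 5'UTR chr19:48389569; #4 NAAA CDS chr4:76857361) were cloned as 3'UTR elements of psiCHECK-2 luciferase and transfected into wild-type HEK293T cells. Total RNA was taken 48 h later and m5C level was measured by targeted bisulfite sequencing as C/(C+U) reads at the m5C site (one library).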

[1] = parent substrate: substrate #1 (main figure)

Row | Sequence | m5C methylation level at the target C [1] | m5C methylation level at the target C (parent substrate: substrate #2) | m5C methylation level at the target C (parent substrate: substrate #3) | m5C methylation level at the target C (parent substrate: substrate #4)
1 | CCGAUC | 0 | 0.00147 | 0 | 0.00219
2 | GCCAAG | 0.0013 | 0 | 0.00527 | 0.00385
3 | UCAUCG | 0 | 0 | 0.000533 | 0
4 | GCGCGA | 0.00135 | 0.00105 | 0.00388 | 0.00778
5 | CCCCCU | 0.00724 | 0 | 0.00134 | 0
6 | GCAGAG | 0.000906 | 0.00131 | 0.00379 | 0
7 | CCCUGU | 0 | 0.000844 | 0.000739 | 0
8 | GCGACC | 0.000927 | 0.00433 | 0 | 0.000837
9 | ACCGAG | 0 | 0.00125 | 0.00121 | 0
10 | ACAGGG | 0 | 0 | 0.00123 | 0.00372
11 | GCUUCC | 0.00212 | 0.000827 | 0.00348 | 0.00123
12 | CCUUAU | 0 | 0.00551 | 0.000487 | 0.000991
13 | CCCAGU | 0 | 0.00413 | 0.00131 | 0
14 | ACAUAC | 0 | 0 | 0 | 0
15 | UCCAAG | 0.00154 | 0 | 0.00756 | 0.00155
16 | GCAAUC | 0.00081 | 0.000986 | 0.00697 | 0
17 | CCCACA | 0 | 0.00234 | 0.00137 | 0.000661
18 | ACGCAC | 0.000481 | 0 | 0 | 0.0142
19 | ACGUUG | 0.00185 | 0.00348 | 0.00704 | 0
20 | CCGGCC | 0 | 0 | 0.0058 | 0.00111
21 | UCAUUC | 0.0047 | 0 | 0 | 0.0011
22 | GCAAAG | 0.00161 | 0.00425 | 0.00375 | 0.00776
23 | ACGACA | 0.00633 | 0.00606 | 0.00143 | 0
24 | CCGGAU | 0.000851 | 0 | 0.000722 | 0.00185

Row | Sequence | m5C methylation level at the target C [1] | m5C methylation level at the target C (parent substrate: substrate #2) | m5C methylation level at the target C (parent substrate: substrate #3) | m5C methylation level at the target C (parent substrate: substrate #4)
25 | UCACCG | 0.0074 | 0 | 0.00522 | 0
26 | ACGUAA | 0 | 0 | 0.00201 | 0.00577
27 | UCUUGA | 0 | 0.00111 | 0.00137 | 0
28 | GCUCAU | 0 | 0.00551 | 0.00348 | 0.00206
29 | GCCCGU | 0 | 0 | 0.00167 | 0.000977
30 | ACUCGC | 0.000759 | 0 | 0.000621 | 0.0108
31 | UCAUGG | 0.00139 | 0.000864 | 0.000586 | 0.00125
32 | UCAAUC | 0 | 0 | 0.00225 | 0.000892
33 | CCGUGA | 0.00188 | 0.0158 | 0 | 0.00258
34 | UCUGGC | 0.00121 | 0 | 0.000804 | 0.00233
35 | ACUCUC | 0.00671 | 0.00086 | 0 | 0.000953
36 | CCCAGA | 0.00216 | 0 | 0.00173 | 0
37 | ACUUUU | 0.000662 | 0 | 0.00585 | 0.00137
38 | UCAGCU | 0 | 0 | 0 | 0.00182
39 | CCACAA | 0 | 0.00109 | 0.00865 | 0
40 | GCGGCA | 0.0149 | 0.0018 | 0.00205 | 0.0094
41 | UCCAUG | 0 | 0.00513 | 0.000817 | 0.000526
42 | CCUCCG | 0.000804 | 0 | 0 | 0.000852
43 | ACUCAU | 0 | 0.00176 | 0 | 0.00328
44 | ACAAUA | 0.00244 | 0.00245 | 0.000888 | 0
45 | UCCCCU | 0 | 0.00614 | 0.001 | 0
46 | CCCAUC | 0 | 0.00149 | 0.000934 | 0.00105
47 | UCCAUC | 0.00439 | 0.00204 | 0 | 0.000844
48 | UCACGG | 0 | 0 | 0 | 0.00631

Excerpt: entries 41 to 45
Row | Sequence | m5C methylation level at the target C [1] | m5C methylation level at the target C (parent substrate: substrate #2) | m5C methylation level at the target C (parent substrate: substrate #3) | m5C methylation level at the target C (parent substrate: substrate #4)
41 | UCCAUG | 0 | 0.00513 | 0.000817 | 0.000526
42 | CCUCCG | 0.000804 | 0 | 0 | 0.000852
43 | ACUCAU | 0 | 0.00176 | 0 | 0.00328
44 | ACAAUA | 0.00244 | 0.00245 | 0.000888 | 0
45 | UCCCCU | 0 | 0.00614 | 0.001 | 0

Additional records.

Row | Sequence | m5C methylation level at the target C [1] | m5C methylation level at the target C (parent substrate: substrate #2) | m5C methylation level at the target C (parent substrate: substrate #3) | m5C methylation level at the target C (parent substrate: substrate #4)
49 | CCUAGU | 0 | 0 | 0.00122 | 0
50 | CCGGUG | 0.00772 | 0 | 0.00476 | 0.00174
51 | UCAACC | 0 | 0 | 0.000625 | 0.000521
52 | ACUUGC | 0.000521 | 0 | 0.000508 | 0
53 | UCGCAA | 0 | 0 | 0.00104 | 0.00288
54 | CCGAAC | 0.00189 | 0.00803 | 0.00179 | 0.00136
55 | UCCUGU | 0 | 0 | 0 | 0.00132
56 | UCUCAC | 0.00141 | 0 | 0.00381 | 0.000419
57 | GCGGUA | 0 | 0 | 0.00244 | 0.0022
58 | UCUCGG | 0.00158 | 0.00133 | 0.0118 | 0.00106
59 | CCCGGU | 0.000515 | 0.00197 | 0.00629 | 0
60 | UCGCGC | 0.00165 | 0 | 0.000814 | 0.000768
61 | UCUGAC | 0.000945 | 0.00123 | 0 | 0.00141
62 | ACCAAU | 0 | 0.0155 | 0 | 0
63 | GCUACG | 0.0114 | 0.00159 | 0.0125 | 0.00119
64 | GCUCGG | 0 | 0.00173 | 0.00226 | 0.00266
65 | GCCCUG | 0 | 0.0125 | 0.00174 | 0.00308
66 | UCUAUU | 0.000891 | 0 | 0 | 0.00255
67 | GCUUAC | 0.00153 | 0 | 0 | 0
68 | UCGCGU | 0 | 0.00172 | 0.00135 | 0.000794
69 | UCAUUU | 0 | 0.000986 | 0 | 0.00374
70 | CCCAAC | 0.00441 | 0 | 0.00163 | 0.00996
71 | GCAUGA | 0.00638 | 0 | 0 | 0.00918
72 | ACGUCG | 0.00235 | 0.00126 | 0.00564 | 0.00141
